Experimental findings from PMC9892010 are described below.

By UniProt entry, the sequences of proteins in these tests, tags left out. Where a name states a change or a piece, a line headed by the entry shows the natural chain unless it says otherwise.
UniProt Q00711: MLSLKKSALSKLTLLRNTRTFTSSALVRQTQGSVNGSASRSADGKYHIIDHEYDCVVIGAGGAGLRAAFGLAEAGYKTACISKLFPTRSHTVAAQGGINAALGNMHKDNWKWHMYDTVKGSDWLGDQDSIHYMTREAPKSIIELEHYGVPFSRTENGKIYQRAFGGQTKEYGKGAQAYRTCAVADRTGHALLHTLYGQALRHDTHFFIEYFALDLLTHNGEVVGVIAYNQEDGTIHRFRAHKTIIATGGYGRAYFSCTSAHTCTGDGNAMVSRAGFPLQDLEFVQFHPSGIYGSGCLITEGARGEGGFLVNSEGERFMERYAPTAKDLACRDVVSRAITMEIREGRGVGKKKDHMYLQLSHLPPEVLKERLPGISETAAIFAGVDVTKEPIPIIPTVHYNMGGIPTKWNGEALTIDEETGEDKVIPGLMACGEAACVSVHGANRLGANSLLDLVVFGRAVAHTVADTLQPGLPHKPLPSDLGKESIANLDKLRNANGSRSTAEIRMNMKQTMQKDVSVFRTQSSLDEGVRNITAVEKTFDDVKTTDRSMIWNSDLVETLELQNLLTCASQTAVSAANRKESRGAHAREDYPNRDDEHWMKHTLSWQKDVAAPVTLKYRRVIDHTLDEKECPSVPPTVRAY
UniProt P21801: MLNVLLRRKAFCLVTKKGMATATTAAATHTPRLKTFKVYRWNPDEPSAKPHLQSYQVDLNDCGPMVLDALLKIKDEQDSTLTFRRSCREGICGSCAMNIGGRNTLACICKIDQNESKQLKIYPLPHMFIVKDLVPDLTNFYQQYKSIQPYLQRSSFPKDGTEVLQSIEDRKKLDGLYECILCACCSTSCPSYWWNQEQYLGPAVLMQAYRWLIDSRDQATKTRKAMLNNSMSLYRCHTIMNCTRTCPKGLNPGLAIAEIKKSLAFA
UniProt P37298: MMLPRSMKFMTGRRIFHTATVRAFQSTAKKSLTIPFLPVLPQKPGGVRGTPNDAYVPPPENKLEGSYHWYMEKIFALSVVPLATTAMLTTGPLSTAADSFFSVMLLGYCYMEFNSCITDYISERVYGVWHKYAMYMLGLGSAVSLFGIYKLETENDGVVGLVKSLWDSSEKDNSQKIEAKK

Holding throughout (assay): native gel or EMSA; complexome profiling (csBN–MS): yeast mitochondria lysed with 1% digitonin (protein:digitonin 1:8), blue native gradient gel 2–13%, cryo-sliced into 245 slices, quantitative MS; co-migration of abundance–mass profiles
The target of test [1] is succinate dehydrogenase (SDH, respiratory complex II) (S. cerevisiae (endogenous in yeast)) (UniProt Q00711+P21801+P37298).
Test [2] has as its target T1, Tim10 (S. cerevisiae (endogenous in yeast)) (UniProt P87108).
T1 sequence: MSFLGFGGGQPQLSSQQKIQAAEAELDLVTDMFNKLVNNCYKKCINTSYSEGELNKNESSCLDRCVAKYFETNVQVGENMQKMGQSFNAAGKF

Test [3] has as its target T2, SAM_(core) complex (S. cerevisiae (endogenous in yeast)) (UniProt P53969+P50110+P14693).
T2 sequence 1: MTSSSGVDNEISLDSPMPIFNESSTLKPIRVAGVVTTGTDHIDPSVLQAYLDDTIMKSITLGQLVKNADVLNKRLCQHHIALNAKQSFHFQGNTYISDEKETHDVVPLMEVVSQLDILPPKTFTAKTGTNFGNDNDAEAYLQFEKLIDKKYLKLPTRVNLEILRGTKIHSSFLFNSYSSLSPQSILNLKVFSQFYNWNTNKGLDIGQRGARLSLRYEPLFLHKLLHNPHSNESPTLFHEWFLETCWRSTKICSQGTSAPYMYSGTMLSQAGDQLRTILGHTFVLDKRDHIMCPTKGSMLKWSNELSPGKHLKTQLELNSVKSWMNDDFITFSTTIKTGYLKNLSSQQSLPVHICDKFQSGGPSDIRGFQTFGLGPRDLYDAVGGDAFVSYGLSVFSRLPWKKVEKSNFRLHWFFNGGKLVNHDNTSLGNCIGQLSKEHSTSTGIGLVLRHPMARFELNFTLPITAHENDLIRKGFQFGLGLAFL
T2 sequence 2: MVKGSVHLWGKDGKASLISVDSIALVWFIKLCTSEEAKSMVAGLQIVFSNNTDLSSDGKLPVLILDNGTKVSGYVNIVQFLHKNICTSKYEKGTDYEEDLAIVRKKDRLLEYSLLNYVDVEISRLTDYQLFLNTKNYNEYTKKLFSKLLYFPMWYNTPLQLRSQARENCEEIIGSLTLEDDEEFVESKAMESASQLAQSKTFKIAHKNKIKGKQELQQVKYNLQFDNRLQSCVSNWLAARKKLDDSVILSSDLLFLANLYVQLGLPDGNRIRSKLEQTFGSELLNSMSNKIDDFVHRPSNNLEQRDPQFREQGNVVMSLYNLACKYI
T2 sequence 3: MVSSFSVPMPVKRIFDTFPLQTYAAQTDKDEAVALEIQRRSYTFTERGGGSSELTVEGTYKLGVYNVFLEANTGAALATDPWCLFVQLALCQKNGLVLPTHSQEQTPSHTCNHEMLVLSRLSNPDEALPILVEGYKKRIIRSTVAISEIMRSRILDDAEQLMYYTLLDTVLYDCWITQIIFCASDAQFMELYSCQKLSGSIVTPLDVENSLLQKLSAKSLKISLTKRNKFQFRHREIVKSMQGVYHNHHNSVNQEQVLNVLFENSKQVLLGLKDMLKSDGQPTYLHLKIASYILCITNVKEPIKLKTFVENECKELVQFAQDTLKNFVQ

No constants are given. Whether binding was seen depends on the method and setting. Some entries that bind do so weakly or less than the wild type.

B1: Sdh3 (protein, UniProt P33421 51-198)
chain: NVASEMNTKAAIAEEQILNKQRAKRPISPHLTIYQPQLTWYLSSLHRISLVLMGLGFYLFTILFGVSGLLGLGLTTEKVSNWYHQKFSKITEWSIKGSFAYLFAIHYGGAIRHLIWDTAKELTLKGVYRTGYALIGFTAVLGTYLLTL
On to B1, for which, in test [1], the binding result is “binds”.

B2: Tim9 (protein, UniProt O74700 1-87)
chain: MDALNSKEQQEFQKVVEQKQMKDFMRLYSNLVERCFTDCVNDFTTSKLTNKEQTCIMKCSEKFLKHSERVGQRFQEQNAALGQGLGR
For the molecule B2, the binding result in test [2] was “binds”.

B3: Mdm10 (protein, UniProt P18409 1-493)
chain: MLPYMDQVLRAFYQSTHWSTQNSYEDITATSRTLLDFRIPSAIHLQISNKSTPNTFNSLDFSTRSRINGSLSYLYSDAQQLEKFMRNSTDIPLQDATETYRQLQPNLNFSVSSANTLSSDNTTVDNDKKLLHDSKFVKKSLYYGRMYYPSSDLEAMIIKRLSPQTQFMLKGVSSFKESLNVLTCYFQRDSHRNLQEWIFSTSDLLCGYRVLHNFLTTPSKFNTSLYNNSSLSLGAEFWLGLVSLSPGCSTTLRYYTHSTNTGRPLTLTLSWNPLFGHISSTYSAKTGTNSTFCAKYDFNLYSIESNLSFGCEFWQKKHHLLETNKNNNDKLEPISDELVDINPNSRATKLLHENVPDLNSAVNDIPSTLDIPVHKQKLLNDLTYAFSSSLRKIDEERSTIEKFDNKINSSIFTSVWKLSTSLRDKTLKLLWEGKWRGFLISAGTELVFTRGFQESLSDDEKNDNAISISATDTENGNIPVFPAKFGIQFQYST
As to B3, the binding entry in test [3] is “binds”.
